Assay results taken from article PMC6755085, “Cyclic oligoadenylate signalling mediates Mycobacterium tuberculosis CRISPR defence” (Nucleic Acids Research, 2019).
Results are given in words; binding and its absence hold for the method and conditions named. Binding seen in cells or lysates may run through a third protein. A yes stands for co-enrichment or nearness to the bait. Other partners may have been found. Where a sequence is shown, tags or fusion partners need not be part of it.

By UniProt entry, the sequences of proteins in these tests, tags left out. Where a name states a change or a piece, a line headed by the entry shows the natural chain unless it says otherwise.
UniProt P9WJF9: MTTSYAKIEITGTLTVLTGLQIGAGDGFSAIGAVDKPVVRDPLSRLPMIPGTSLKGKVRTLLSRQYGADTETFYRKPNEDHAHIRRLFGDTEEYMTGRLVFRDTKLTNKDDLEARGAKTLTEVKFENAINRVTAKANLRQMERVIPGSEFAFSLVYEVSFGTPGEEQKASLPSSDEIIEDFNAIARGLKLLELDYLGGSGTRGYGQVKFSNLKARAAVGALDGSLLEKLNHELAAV

T1: Mycobacterium tuberculosis Csm4 (Cas5), His6-tagged (Mycobacterium tuberculosis) (UniProt P9WJF6)
T1 sequence: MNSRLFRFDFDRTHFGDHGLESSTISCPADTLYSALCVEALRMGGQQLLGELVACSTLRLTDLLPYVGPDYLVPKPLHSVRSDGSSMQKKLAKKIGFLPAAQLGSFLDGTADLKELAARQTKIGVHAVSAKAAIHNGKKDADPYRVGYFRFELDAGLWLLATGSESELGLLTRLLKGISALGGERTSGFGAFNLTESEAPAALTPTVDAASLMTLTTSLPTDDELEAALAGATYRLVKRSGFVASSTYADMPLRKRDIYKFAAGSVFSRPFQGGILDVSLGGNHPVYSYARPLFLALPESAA


What follows are molecules tested against T1, Mycobacterium tuberculosis Csm4 (Cas5), His6-tagged (Mycobacterium tuberculosis) (assay: affinity purification with mass spectrometry).

Molecule | binding
Mycobacterium tuberculosis Csm3 (Cas7) (from UniProt P9WJF9) | binds
Mycobacterium canettii Csm2 (Cas11) | binds
Mycobacterium tuberculosis Csm5 (protein, UniProt P9WJF4 1-375) MNTYLKPFELTLRCLGPVFIGSGEKRTSKEYHVEGDRVYFPDMELLYADIPAHKRKSFEAFVMNTDGAQATAPLKEWVEPNAVKLDPAKHRGYEVKIGSIEPRRASRGRGGRMTRKKLTLNEIHAFIKDPLGRPYVPGSTVKGMLRSIYLQSLVHKRTAQPVRVPGHQTREHRQYGERFERKELRKSGRPNTRPQDAVNDLFQAIRVTDSPALRTSDLLICQKMDMNVHGKPDGLPLFRECLAPGTSISHRVVVDTSPTARGGWREGERFLETLAETAASVNQARYAEYRAMYPGVNAIVGPIVYLGGGAGYRSKTFVTDQDDMAKVLDAQFGKVVKHVDKTRELRVSPLVLKRTKIDNICYEMGQCELSIRRAE | binds
